Results deposited as PubChem BioAssay AID686938 (Drosophila RNAi Screening Center, 2013).
In all, the deposit lists about 23,000 reagents; this is an unselected part of those that have a named target and a result. Over the whole deposit, 75 (0.33%) got an active call. 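Raw plate signals without normalisation; calls rest on plate z-scores that were not deposited; ratio present for only 364 wells.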 A plus sign joins genes that one reagent is predicted to hit. No sequences are given here. Not given: the dose of the treatment.

Purpose: 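Looking for CRAC channel components and the factors controlling them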 (primary screen)
Cells: Drosophila S2R+ cells
Reagent: long dsRNA against Drosophila genes, about 0.25 µg dsRNA per well, roughly 10,000 cells
Time to read-out: 5 days of knock-down before the calcium assay
Conditions: thapsigargin (SERCA pump blocker) to empty calcium stores; entry signal taken 4 min after adding it
Measured: 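Per-well fluo-4 fluorescence in two replicates, unnormalised, measured in resting cells and 4 min after store depletion by the SERCA blocker thapsigargin; ratio of the two present in few wells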
Scale: calcium entry signal: higher = stronger calcium signal after store depletion; entry to resting ratio: higher = more calcium entry relative to resting level; resting calcium signal: higher = higher resting calcium signal
Hit rule: 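Called when the plate z-score of the entry-to-rest ratio, mean of duplicates, falls below −3; wells with low overall dye signal (Fmax z below −2) or more than five off-targets excluded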
Calls: active = strongly reduced calcium entry; inactive = no strong reduction

| gene knocked down | dsRNA | calcium entry signal, replicate 1 (fluorescence units) | calcium entry signal, replicate 2 (fluorescence units) | entry to resting ratio | resting calcium signal, replicate 1 (fluorescence units) | resting calcium signal, replicate 2 (fluorescence units) | Call |
| --- | --- | --- | --- | --- | --- | --- | --- |
| Ubr3 (Ubr3 ubiquitin ligase) | DRSC17987 | 3.16e7 | 3.60e7 | – | 1.96e7 | 2.16e7 | inactive |
| Ubr3 (Ubr3 ubiquitin ligase) | DRSC17997 | 2.83e7 | 3.16e7 | – | 1.87e7 | 1.91e7 | inactive |
| CG31784 | DRSC01574 | 2.54e7 | 4.39e7 | – | 1.46e7 | 2.01e7 | inactive |
| rpk (ripped pocket) | DRSC12386 | 3.87e7 | 4.04e7 | – | 1.77e7 | 2.62e7 | inactive |
| rpk (ripped pocket) | DRSC21656 | 4.26e7 | 4.10e7 | – | 2.34e7 | 2.08e7 | inactive |
| Sap-r (Saposin-related) | DRSC16849 | 4.78e7 | 4.69e7 | – | 2.02e7 | 2.30e7 | inactive |
| Sap-r (Saposin-related) | DRSC21916 | 3.41e7 | 5.30e7 | – | 1.73e7 | 3.00e7 | inactive |
| Srp54k (Signal recognition particle 54k) | DRSC11289 | 2.78e7 | 3.93e7 | – | 1.54e7 | 2.02e7 | inactive |
| CG6661 + asRNA:CR42871 | DRSC10687 | 2.18e7 | 3.28e7 | – | 1.02e7 | 1.90e7 | inactive |
| Acat2 (Acetyl-CoA acetyltransferase 2) | DRSC08630 | 3.03e7 | 3.40e7 | – | 1.55e7 | 1.47e7 | inactive |
| t-Grip84 (testis-specific gamma-tubulin ring protein 84) | DRSC10904 | 3.17e7 | 5.09e7 | – | 1.51e7 | 2.09e7 | inactive |
| CG6231 | DRSC15997 | 3.89e7 | 4.90e7 | – | 6.42e7 | 2.09e7 | inactive |
| CG18823 | DRSC18168 | 4.56e7 | 6.15e7 | 2.2 | 2.11e7 | 2.47e7 | inactive |
| Pus7 (Pseudouridine synthase 7) | DRSC10703 | 2.49e7 | 3.49e7 | – | 1.22e7 | 1.65e7 | inactive |
| Coq7 + shf | DRSC18448 | 3.01e7 | 4.45e7 | – | 1.49e7 | 2.02e7 | inactive |
| CG10752 | DRSC09799 | 5.54e7 | 3.86e7 | – | 3.41e7 | 1.72e7 | inactive |
| Rap1 (Rap1 GTPase) | DRSC08686 | 4.02e7 | 3.48e7 | – | 2.05e7 | 1.74e7 | inactive |
| CG13319 | DRSC06356 | 5.06e7 | 3.52e7 | – | 2.67e7 | 1.80e7 | inactive |
| CG32579 | DRSC19872 | 4.34e7 | 2.82e7 | – | 2.12e7 | 1.28e7 | inactive |
| CG9330 | DRSC11066 | 2.95e7 | 4.63e7 | – | 1.46e7 | 2.00e7 | inactive |
| CG4714 | DRSC06883 | 2.56e7 | 2.56e7 | – | 1.19e7 | 1.24e7 | inactive |
| Pex13 (Peroxin 13) | DRSC06877 | 2.33e7 | 2.52e7 | – | 1.09e7 | 1.26e7 | inactive |
| fru (fruitless) | DRSC16951 | 3.62e7 | 3.93e7 | – | 4.65e7 | 2.11e7 | inactive |
| fru (fruitless) | DRSC16952 | 3.93e7 | 4.93e7 | – | 2.39e7 | 4.37e7 | inactive |
| fru (fruitless) | DRSC16953 | 5.31e7 | 5.66e7 | – | 5.06e7 | 2.75e7 | inactive |
| fru (fruitless) | DRSC21600 | 2.71e7 | 2.86e7 | – | 1.64e7 | 1.34e7 | inactive |
